## Screening data

From PubChem BioAssay record AID1053133 (Broad Institute, 2014).

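Vaccinia-infected cells with a two-color viral stage reporter; Venus fluorescence read on a plate reader; the cell line is not named here; timing not stated here. The test concentration is not given here. Percent change in Venus reporter signal; lower (more negative) values mean stronger inhibition of that viral stage.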

Values are in %. The controls that fix the scale are not given here. Common to all entries: measured here: Venus reporter, other viral stage. Part of the compounds only, not a random draw; the main read-out is not listed here.

{"smiles": "C[C@@H]1CN([C@H](C)CO)S(=O)(=O)c2ccc(C#Cc3ccncc3)cc2O[C@@H]1CN(C)C(=O)C1CCC1", "activity change (Venus) (%)": "-17.68"}
{"smiles": "C[C@H](CO)N1C[C@H](C)[C@H](CN(C)Cc2ccc3c(c2)OCO3)Oc2c(NC(=O)Nc3ccc(F)cc3)cccc2C1=O", "activity change (Venus) (%)": "-43.2"}
{"smiles": "O=C(N[C@H]1CC[C@H](CCn2cc(-c3ccccc3)nn2)O[C@H]1CO)c1ccccc1F", "activity change (Venus) (%)": "-32.83"}
{"smiles": "Cc1ccc(S(=O)(=O)N(C)C[C@@H]2OCCCC[C@@H](C)Oc3ccc(NC(=O)NC4CCCCC4)cc3C(=O)N([C@H](C)CO)C[C@H]2C)cc1", "activity change (Venus) (%)": "-33.21"}
{"smiles": "Cc1ccc(S(=O)(=O)Nc2ccc3c(c2)C(=O)N([C@@H](C)CO)C[C@@H](C)[C@H](CN(C)C(=O)NC2CCCCC2)OCCCC[C@@H](C)O3)cc1", "activity change (Venus) (%)": "-39.73"}
{"smiles": "Cc1ccc(S(=O)(=O)N(C)C[C@@H]2OCCCC[C@@H](C)Oc3ccc(NC(=O)c4ccccc4)cc3C(=O)N([C@H](C)CO)C[C@@H]2C)cc1", "activity change (Venus) (%)": "-25.73"}
{"smiles": "C[C@@H]1CN([C@H](C)CO)C(=O)c2cc(NC(=O)Nc3ccc4c(c3)OCO4)ccc2O[C@@H]1CN(C)Cc1ccc(-c2ccccc2)cc1", "activity change (Venus) (%)": "-37.12"}
{"smiles": "C[C@@H]1CCCCO[C@H](CN(C)CC2CCCCC2)[C@H](C)CN([C@H](C)CO)C(=O)c2cc(NC(=O)Nc3ccccc3)ccc2O1", "activity change (Venus) (%)": "-72.93"}
{"smiles": "CCCC#Cc1ccc2c(c1)O[C@H](CN(C)Cc1ccccn1)[C@@H](C)CN([C@@H](C)CO)S2(=O)=O", "activity change (Venus) (%)": "-40.29"}
{"smiles": "CCCC(=O)N1CCC2(CC1)CN(S(=O)(=O)c1ccc(C)cc1)[C@H](CO)c1[nH]c3cc(OC)ccc3c12", "activity change (Venus) (%)": "-33.02"}
{"smiles": "Cc1ccc(S(=O)(=O)Nc2ccc3c(c2)CC(=O)N([C@@H](C)CO)C[C@@H](C)[C@@H](CN(C)Cc2ccc(Oc4ccccc4)cc2)O3)cc1", "activity change (Venus) (%)": "-77.37"}
{"smiles": "COc1cccc(C#Cc2ccc3c(c2)O[C@@H](CN(C)C(C)=O)[C@H](C)CN([C@@H](C)CO)S3(=O)=O)c1", "activity change (Venus) (%)": "-53.64"}
{"smiles": "Cc1cc(C(=O)Nc2cccc3c2O[C@H](CN(C)Cc2ccc(-c4ccccc4)cc2)[C@@H](C)CN([C@@H](C)CO)C3=O)n(C)n1", "activity change (Venus) (%)": "-36.8"}
{"smiles": "CCc1cccc(NC(=O)O[C@H]2[C@H](OC(=O)Nc3ccccc3-c3ccccc3)[C@H](OC(=O)Nc3ccccc3-c3ccccc3)[C@@H](OC)O[C@@H]2CO)c1", "activity change (Venus) (%)": "-30.3"}
{"smiles": "COc1ccccc1C#Cc1ccc2c(c1)O[C@H](CN(C)Cc1cccnc1)[C@@H](C)CN([C@H](C)CO)S2(=O)=O", "activity change (Venus) (%)": "-23.89"}
{"smiles": "C[C@@H]1CN([C@H](C)CO)C(=O)c2cccc(NC(=O)Nc3ccc(C(F)(F)F)cc3)c2O[C@H]1CN(C)S(=O)(=O)c1cccs1", "activity change (Venus) (%)": "-48.66"}
{"smiles": "COc1ccc(S(=O)(=O)N(C)C[C@H]2OCCCC[C@@H](C)Oc3ccc(NS(=O)(=O)c4c(C)noc4C)cc3C(=O)N([C@@H](C)CO)C[C@H]2C)cc1", "activity change (Venus) (%)": "-49.67"}
{"smiles": "C[C@@H]1CN([C@H](C)CO)S(=O)(=O)c2ccc(-c3ccncc3)cc2O[C@@H]1CN(C)S(=O)(=O)c1ccccc1F", "activity change (Venus) (%)": "-50.53"}